# Results are given in words; binding and its absence hold for the method and conditions named. Some results given as binding are weak or reduced against the parent protein; the word gives no strength.
# B1: 10J5-chimeric J591 (antibody, V domains shown)
# VH: EVQLQQSGPELVKPGTSVRISCKTSGYTFTEYTIHWVKQSHGKSLEWIGNINPNNGGTTYNQKFEDKATLTVDKSSSTAYMELRSLTSEDSAVYYCAAGWNFDYWGQGTTLTVSS
# VL: DIVMTQSHKFMSTSVGDRVSIICKASQDVGTAVDWYQQKPGQSPKLLIYWASTRHTGVPDRFTGSGSGTDFTLTITNVQSEDLADYFCQQYNSYPLTFGAGTMLDLKR
# Molecular target: cynomolgus PSMA (ACRO) (cynomolgus)
# Experiment: SPR Biacore, 37 C
binder,measurement,value
B1,binding,binds
